Test results: patent publication US7569663
No constants are given. Whether binding was seen depends on the method and setting. Some results given as binding are weak or reduced against the parent protein; the word gives no strength.

By UniProt entry, the sequences of proteins in these tests, tags left out. Where a name states a change or a piece, a line headed by the entry shows the natural chain unless it says otherwise. Residues count along the entry.
UniProt P25445, residues 26-335: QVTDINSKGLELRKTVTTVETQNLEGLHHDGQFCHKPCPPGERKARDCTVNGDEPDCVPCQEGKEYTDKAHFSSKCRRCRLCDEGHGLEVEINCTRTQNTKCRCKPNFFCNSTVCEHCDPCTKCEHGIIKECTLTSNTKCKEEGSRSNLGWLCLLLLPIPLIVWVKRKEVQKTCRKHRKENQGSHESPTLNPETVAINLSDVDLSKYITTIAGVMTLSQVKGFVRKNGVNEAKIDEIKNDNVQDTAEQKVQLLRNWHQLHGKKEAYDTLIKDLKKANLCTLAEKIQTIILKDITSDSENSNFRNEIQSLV
UniProt P16410: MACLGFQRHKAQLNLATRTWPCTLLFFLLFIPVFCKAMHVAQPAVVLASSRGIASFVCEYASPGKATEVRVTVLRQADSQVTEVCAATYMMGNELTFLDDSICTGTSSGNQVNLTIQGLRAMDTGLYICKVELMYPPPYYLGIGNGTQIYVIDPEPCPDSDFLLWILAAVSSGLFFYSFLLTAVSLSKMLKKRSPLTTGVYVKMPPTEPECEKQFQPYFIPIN

Target: Fas (CD95) receptor on Jurkat cells (human) (UniProt P25445)
Assay: flow cytometry on Jurkat cells, detection of CTLA-4 epitopes

In the case of “CTLA-4•FasL (from UniProt P16410 36-161; P48023 127-281)”, the binding is reported as “binds”.
